The other results are listed elsewhere or left out. Shown are side measurements of this screen, not its main read-out; they come without a call. The list favours compounds with an active or inconclusive main result. Potencies come from curve fits of mixed quality, noted in brackets.
Experiment: qHTS Assay for Lipid Storage Modulators in Drosophila S3 Cells;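 for cell number change: cells counted by Cell Tracker Red CMTPX staining in the red channel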
Settings: BODIPY lipid droplet fluorescence, 18-24 h; for cell number change: measured here: cell count max response, cells fed with added oleic acid
Procedure, shortened: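 Drosophila S3 cells got compounds at several concentrations plus oleic acid (400 uM solution). Laser-scanning cytometry with 488 nm excitation read lipid droplets at 500-530 nm and cells at 575-640 nm. Percent activity was relative to 20 uM Triacsin C.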

[1] = measured here: lipid fluorescence (Fed channel) AC50, cells fed with added oleic acid
[2] = measured here: cell number channel AC50, cells fed with added oleic acid

SMILES	cell number change	AC50 [1]	AC50 [2]
Cc1ccc(NC(=O)C(c2ccccc2)c2ccccc2)nc1	8.03%	6.51 µM [rising, single point]	
Cc1ccc(S(=O)(=O)NC(=NC2CCCCC2)c2ccc(F)cc2)cc1	-2.38%		2.06 µM [rising, partial curve, poor fit]
Cc1cc2oc(=O)cc(CN(C)Cc3cccc(F)c3)c2cc1Cl	30.4%		32.6 µM [rising, partial curve, poor fit]
COc1ccc(NC(=S)N=Nc2c(O)[nH]c3ccccc23)cc1	14.8%	1.03 µM [rising, full curve, poor fit]	
Cc1cc(C)nc(N2CCC(C(=O)Nc3ccc(Oc4ccccc4)cc3)CC2)n1	-41.4%	20.6 µM [falling, single point]	29.1 µM [falling, single point]
Cn1ccc(C(=O)OCC(=O)Nc2ccccc2)n1	-5.24%	0.103 µM [rising, full curve, poor fit]	
CCOc1cc(/C=C/C(=O)c2ccc3c(c2)OCCO3)ccc1OCC(=O)N(C)C	1.26%		
COc1ccc(C)cc1NC(=O)CCC(=O)Nc1nnc(C2CCCCC2)s1	4.48%	29.1 µM [rising, single point]	
Cn1c(=S)[nH]c2[nH]c(=O)cnc2c1=O	0.314%	1.46 µM [falling, partial curve]	
COc1ccc(CNC(=O)CN(C)S(=O)(=O)c2ccccc2)cc1	-21.9%	0.461 µM [falling, partial curve, poor fit]	0.731 µM [falling, single point]
O=C(COC(=O)/C=C/c1ccccc1)NCC1CCCO1 (stereo not given)	35.1%		
Nc1nc(NCCc2ccccc2)nc(NCc2ccccc2)c1[N+](=O)[O-]	4.17%	6.51 µM [falling, single point]	0.103 µM [rising, partial curve, poor fit]
Cc1cc(C(=O)N2CCCC(N3CCN(c4cccc(C(F)(F)F)c4)CC3)C2)n[nH]1 (stereo not given)	16.7%	1.84 µM [rising, partial curve, poor fit]	1.3 µM [rising, full curve, poor fit]
O=C(Nc1ccc(NC(=O)c2ccccc2F)cc1)c1ccccc1F	-26.4%		0.411 µM [falling, full curve, poor fit]
COc1ccc(Cl)cc1NC(=O)Nc1ccc(C(=O)N2CCOCC2)cc1	-21%	2.06 µM [rising, partial curve]	
CN(CC(=O)Nc1ccccc1Br)C(=O)c1n[nH]c2ccccc12	71%		6.51 µM [rising, partial curve]
Cc1cc(NC(=O)Cc2ccccc2[N+](=O)[O-])no1	-8.24%	29.1 µM [rising, single point]	
CC(C)N(C(=O)COC(=O)[C@H](C)NC(N)=O)c1ccccc1	5.11%		
Cc1cccc(N=N/C(=C\O)C(=O)c2cccs2)c1	15.5%	0.00411 µM [rising, full curve, poor fit]	0.58 µM [rising, partial curve, poor fit]
O=C(O)C(Cc1ccccc1)N1C(=O)c2ccccc2C1=O (stereo not given)		6.51 µM [rising, single point]	1.84 µM [rising, partial curve]

SMILES	cell number change	AC50 [1]	AC50 [2]
Cc1ccc(S(=O)(=O)N2CCN(C(=O)COC(=O)c3cc(C)oc3C)CC2)cc1	49.1%	1.84 µM [rising, partial curve]	10.3 µM [rising, partial curve, poor fit]
Cn1cc2cccc([N+](=O)[O-])c2n1	5.85%		
COc1ccc(Nc2nnc(SCC(=O)NC3CC3)s2)cc1		0.206 µM [rising, full curve, poor fit]	
O=C(CCNC(=O)c1ccc(Cl)cc1)NC1CCCCCC1	0.57%	2.06 µM [falling, partial curve]	1.64 µM [falling, partial curve]
Cc1nc2c(C#N)c[nH]n2c(=O)c1CCO	-17.5%	0.092 µM [falling, full curve, poor fit]	
COc1ccc(-n2c(=O)[nH]cc(C(=O)Nc3ccccc3)c2=O)cc1	3.58%	2.59 µM [falling, partial curve]	
O=C(CCNS(=O)(=O)c1ccccc1)NCC1CCCCC1	-95.5%	3.26 µM [falling, full curve]	13 µM [falling, partial curve]
O=C(c1cccs1)N(Cc1cccc(F)c1)C1CCS(=O)(=O)C1 (stereo not given)	-11.9%	11.6 µM [falling, partial curve]	
COc1ccccc1N1CCN(CC(=O)c2c[nH]c3ccccc23)CC1	-61.1%	9.2 µM [falling, partial curve]	16.4 µM [falling, partial curve]
Oc1ccc(/C=N/N2CCOCC2)c(O)c1O		20.6 µM [rising, single point]	
C=CCNC(=O)COC(=O)c1oc2ccccc2c1CSC1CCCCC1	-24.7%	20.6 µM [falling, single point]	
CN(CC(=O)NCc1ccccc1)Cc1ccc(Cl)cc1	13.9%	0.58 µM [rising, single point]	
CC(=O)NS(=O)(=O)c1ccc(NC(=S)NC(=O)C(C)C)cc1	-83.5%		29.1 µM [falling, single point]
Cc1cccc(C(=O)Nc2nnc(S(=O)(=O)N3CCC(C)CC3)s2)c1	-32.7%		0.13 µM [falling, full curve, poor fit]
Cc1ccc(S(=O)(=O)CC(=O)Nc2ccc(S(=O)(=O)Nc3onc(C)c3C)cc2)cc1	-8.67%	3.66 µM [falling, full curve]	
Cc1nn(CC2CC2)c(=O)n1-c1ccc(F)cc1	16.5%	14.6 µM [rising, single point]	
O=C(CNC(=O)c1cccs1)NCC(=O)OCc1ccccc1Br	32.1%	17.8 µM [rising, single point]	14.1 µM [rising, single point]
Cc1sc2nc(SCC(=O)Nc3cccc(C(=O)O)c3)[nH]c(=O)c2c1C	9.64%	16.4 µM [falling, single point]	
O=C1c2ccccc2S(=O)(=O)N1CC(O)COc1ccc(Cl)cc1 (stereo not given)	-0.559%		
CC1CN(C(=O)CSc2nc(-c3ccccc3)cs2)CC(C)O1 (stereo not given)	51.5%	6.51 µM [rising, single point]	

SMILES	cell number change	AC50 [1]	AC50 [2]
Cc1ccc(OCC(=O)Nc2ccc(CN3CCOCC3)cc2)cc1	1.73%	1.46 µM [rising, full curve]	
CC(=O)N1CCc2cc(S(=O)(=O)C(C)CC(=O)NCc3ccc(C)o3)ccc21 (stereo not given)	2.75%	0.092 µM [rising, full curve, poor fit]	
Cc1ccccc1NC(=S)N(CCc1c(C)[nH]c2ccc(F)cc12)Cc1ccncc1	-18.4%	29.1 µM [falling, single point]	
COc1cccc(C(C(=O)NC2CCCC2)N(C(=O)c2ccco2)C2CC2)c1OC (stereo not given)	1.95%		
COc1ccccc1NS(=O)(=O)c1cccc(NC(=O)Nc2cccc(Cl)c2)c1	-30.3%		29.1 µM [falling, single point]
Cc1ccc(OCCCC(=O)Nc2nnc(C3CCCO3)s2)c(C)c1 (stereo not given)	9.55%	0.517 µM [falling, full curve]	
CCCCCNC(=O)Cc1ccc(OC)cc1	25.6%		
COCCNC(=O)CNC(=S)N(CCCN1CCOCC1)Cc1cccs1	-26.6%	2.31 µM [falling, single point]	
CC(=O)c1cccc(NC(=O)NC2CC(=O)N(c3ccc4c(c3)OCCO4)C2)c1 (stereo not given)	6.83%		
O=C(NC(c1ccccc1)c1cc(Cl)c2cccnc2c1O)c1cccnc1 (stereo not given)	-58%	25.9 µM [falling, single point]	23.1 µM [falling, single point]
Cc1[nH]nc2c1C(=O)CCC2	1.13%	0.13 µM [falling, full curve]	0.461 µM [falling, full curve, poor fit]
O=C1CCCN2N=C(SCC(=O)Nc3ccc([N+](=O)[O-])cc3)SC2=N1	44.5%	0.206 µM [rising, single point]	9.2 µM [rising, partial curve]
CC(=O)N1CCN(c2nc3cc4c(cc3nc2NS(=O)(=O)c2ccccc2)OCCO4)CC1	-13.8%		
NS(=O)(=O)c1ccc(CCNS(=O)(=O)c2ccc(Cl)nc2)cc1	-8.74%		
COCC(C)NS(=O)(=O)c1ccc(NC(=O)C(Cc2ccccc2)NC(N)=O)cc1 (stereo not given)	0.739%		
CCNc1c(NS(=O)(=O)c2ccc(OC)c(Cl)c2)c(=O)oc2ccccc12	1.49%	0.82 µM [rising, single point]	
CCOc1ccccc1N(CC(=O)Nc1ccc2c(c1)OCCO2)S(C)(=O)=O	24.7%	0.517 µM [rising, single point]	
COc1ccc(C(=O)NC(=S)Nc2cccc3ncccc23)cc1[N+](=O)[O-]	-17.8%	20.6 µM [falling, single point]	
COc1nc(OC)nc(N(C)CCO)n1	-21.3%	5.8 µM [falling, full curve]	
Oc1c(Br)cc(Br)cc1/C=N/NC(=S)N[C@H]1CC2C=CC1C2 (stereo not given in full)	-40.2%		13 µM [falling, single point]

Part of the list above in order of heavy-atom count, low to high.
SMILES	cell number change	AC50 [1]	AC50 [2]
Cc1nc2c(C#N)c[nH]n2c(=O)c1CCO	-17.5%	0.092 µM [falling, full curve, poor fit]	
Cc1cccc(N=N/C(=C\O)C(=O)c2cccs2)c1	15.5%	0.00411 µM [rising, full curve, poor fit]	0.58 µM [rising, partial curve, poor fit]
O=C(c1cccs1)N(Cc1cccc(F)c1)C1CCS(=O)(=O)C1 (stereo not given)	-11.9%	11.6 µM [falling, partial curve]	
O=C(Nc1ccc(NC(=O)c2ccccc2F)cc1)c1ccccc1F	-26.4%		0.411 µM [falling, full curve, poor fit]
CCOc1ccccc1N(CC(=O)Nc1ccc2c(c1)OCCO2)S(C)(=O)=O	24.7%	0.517 µM [rising, single point]	

From PubChem BioAssay AID2685 (National Center for Advancing Translational Sciences (NCATS), 2010)
